According to publication PMC8688515:
These are yes or no findings as the source states them, for the method shown. Binding seen in cells or lysates may run through a third protein. Some results given as binding are weak or reduced against the parent protein; the word gives no strength.

Chains of the proteins cited; added tags and fusions are not shown.
UniProt A6NIX2: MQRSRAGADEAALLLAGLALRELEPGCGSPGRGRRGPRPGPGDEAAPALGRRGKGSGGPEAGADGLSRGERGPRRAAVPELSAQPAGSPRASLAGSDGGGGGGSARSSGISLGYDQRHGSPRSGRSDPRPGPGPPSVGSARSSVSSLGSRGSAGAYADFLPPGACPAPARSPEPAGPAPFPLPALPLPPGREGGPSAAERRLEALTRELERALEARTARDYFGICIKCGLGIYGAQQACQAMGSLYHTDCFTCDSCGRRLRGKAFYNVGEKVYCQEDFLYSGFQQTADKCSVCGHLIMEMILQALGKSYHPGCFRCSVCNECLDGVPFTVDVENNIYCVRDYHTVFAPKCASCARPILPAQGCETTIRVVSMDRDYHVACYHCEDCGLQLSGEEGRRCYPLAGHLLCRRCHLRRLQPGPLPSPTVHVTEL
UniProt O43524: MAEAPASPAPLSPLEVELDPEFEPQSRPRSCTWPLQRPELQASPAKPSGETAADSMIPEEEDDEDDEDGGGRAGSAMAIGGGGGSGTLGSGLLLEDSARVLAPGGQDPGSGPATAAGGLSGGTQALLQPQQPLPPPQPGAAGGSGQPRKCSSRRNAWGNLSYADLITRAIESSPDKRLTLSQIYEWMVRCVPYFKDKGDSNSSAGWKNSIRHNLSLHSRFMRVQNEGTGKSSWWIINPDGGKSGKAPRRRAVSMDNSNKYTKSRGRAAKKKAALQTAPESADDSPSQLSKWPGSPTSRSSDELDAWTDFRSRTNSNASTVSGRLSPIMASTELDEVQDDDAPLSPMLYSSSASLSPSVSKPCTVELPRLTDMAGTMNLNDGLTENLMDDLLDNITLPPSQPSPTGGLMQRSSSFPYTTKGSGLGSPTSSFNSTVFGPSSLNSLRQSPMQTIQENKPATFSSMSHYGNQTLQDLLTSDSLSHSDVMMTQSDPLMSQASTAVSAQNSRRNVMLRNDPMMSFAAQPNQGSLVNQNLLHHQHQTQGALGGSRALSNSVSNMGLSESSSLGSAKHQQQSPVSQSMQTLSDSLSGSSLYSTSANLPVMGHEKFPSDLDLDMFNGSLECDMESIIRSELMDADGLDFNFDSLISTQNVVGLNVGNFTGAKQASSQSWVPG

Target: WTIP (human (coding sequence amplified from HEK293 cells)) (UniProt A6NIX2)
Test: co-IP; MOLM-13 cells transfected with WTIP or control vector, doxycycline 48 h; RIPA lysates; primary antibody (anti-WTIP) or normal IgG overnight at 4 °C, protein A magnetic beads 2 h at 4 °C, washed three times with PBST; immunoblot with anti-FOXO3a

Substance: FOXO3a (from UniProt O43524 1-673)
- binding: binds
